Results published in paper doi:10.1101/253294.
No constants are given. Whether binding was seen depends on the method and setting. Some binding calls cover weakened binding; strength is not graded here. For some assays here: Where a sequence is shown, tags or fusion partners need not be part of it.

Amino acid sequences for entries named in this document (tags omitted).
UniProt Q15436: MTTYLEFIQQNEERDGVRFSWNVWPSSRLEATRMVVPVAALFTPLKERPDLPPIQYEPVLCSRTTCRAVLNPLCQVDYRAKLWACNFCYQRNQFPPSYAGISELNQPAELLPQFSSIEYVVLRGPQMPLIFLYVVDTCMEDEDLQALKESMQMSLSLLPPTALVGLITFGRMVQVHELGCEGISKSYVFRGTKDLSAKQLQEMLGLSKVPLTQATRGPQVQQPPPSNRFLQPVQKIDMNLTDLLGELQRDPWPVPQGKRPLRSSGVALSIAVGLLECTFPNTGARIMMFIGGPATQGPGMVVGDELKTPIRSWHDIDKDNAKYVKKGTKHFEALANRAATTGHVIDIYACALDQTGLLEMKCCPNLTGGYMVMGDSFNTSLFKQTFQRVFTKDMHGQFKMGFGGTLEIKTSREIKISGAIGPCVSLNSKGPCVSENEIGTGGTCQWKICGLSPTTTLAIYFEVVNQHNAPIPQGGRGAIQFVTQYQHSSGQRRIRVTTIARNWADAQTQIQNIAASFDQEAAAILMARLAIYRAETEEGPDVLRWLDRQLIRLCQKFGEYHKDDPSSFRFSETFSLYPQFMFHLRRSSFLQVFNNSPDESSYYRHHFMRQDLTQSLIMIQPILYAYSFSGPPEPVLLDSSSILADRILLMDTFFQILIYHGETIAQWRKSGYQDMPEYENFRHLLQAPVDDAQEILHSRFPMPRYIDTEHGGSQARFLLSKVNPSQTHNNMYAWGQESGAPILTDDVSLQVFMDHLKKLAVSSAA

Tests used:
[1] = target: T1, His6-Sec13 (UniProt P55735); assay: co-purification
T1 sequence: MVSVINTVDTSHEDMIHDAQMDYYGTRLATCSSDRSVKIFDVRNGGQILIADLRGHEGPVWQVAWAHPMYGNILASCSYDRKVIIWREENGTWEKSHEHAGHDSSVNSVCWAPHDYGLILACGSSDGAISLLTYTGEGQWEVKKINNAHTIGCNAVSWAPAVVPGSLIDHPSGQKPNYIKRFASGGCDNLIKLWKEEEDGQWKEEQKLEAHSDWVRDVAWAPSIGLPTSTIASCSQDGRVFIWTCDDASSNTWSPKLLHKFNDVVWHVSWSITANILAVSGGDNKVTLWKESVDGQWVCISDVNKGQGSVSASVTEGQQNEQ

[2] = target: His6-Sec23A (UniProt Q15436); assay: co-purification

B1: Sec31A (protein, UniProt O94979 1-1220)
chain: MKLKEVDRTAMQAWSPAQNHPIYLATGTSAQQLDATFSTNASLEIFELDLSDPSLDMKSCATFSSSHRYHKLIWGPYKMDSKGDVSGVLIAGGENGNIILYDPSKIIAGDKEVVIAQNDKHTGPVRALDVNIFQTNLVASGANESEIYIWDLNNFATPMTPGAKTQPPEDISCIAWNRQVQHILASASPSGRATVWDLRKNEPIIKVSDHSNRMHCSGLAWHPDVATQMVLASEDDRLPVIQMWDLRFASSPLRVLENHARGILAIAWSMADPELLLSCGKDAKILCSNPNTGEVLYELPTNTQWCFDIQWCPRNPAVLSAASFDGRISVYSIMGGSTDGLRQKQVDKLSSSFGNLDPFGTGQPLPPLQIPQQTAQHSIVLPLKKPPKWIRRPVGASFSFGGKLVTFENVRMPSHQGAEQQQQQHHVFISQVVTEKEFLSRSDQLQQAVQSQGFINYCQKKIDASQTEFEKNVWSFLKVNFEDDSRGKYLELLGYRKEDLGKKIALALNKVDGANVALKDSDQVAQSDGEESPAAEEQLLGEHIKEEKEESEFLPSSGGTFNISVSGDIDGLITQALLTGNFESAVDLCLHDNRMADAIILAIAGGQELLARTQKKYFAKSQSKITRLITAVVMKNWKEIVESCDLKNWREALAAVLTYAKPDEFSALCDLLGTRLENEGDSLLQTQACLCYICAGNVEKLVACWTKAQDGSHPLSLQDLIEKVVILRKAVQLTQAMDTSTVGVLLAAKMSQYANLLAAQGSIAAALAFLPDNTNQPNIMQLRDRLCRAQGEPVAGHESPKIPYEKQQLPKGRPGPVAGHHQMPRVQTQQYYPHGENPPPPGFIMHGNVNPNAAGQLPTSPGHMHTQVPPYPQPQPYQPAQPYPFGTGGSAMYRPQQPVAPPTSNAYPNTPYISSASSYTGQSQLYAAQHQASSPTSSPATSFPPPPSSGASFQHGGPGAPPSSSAYALPPGTTGTLPAASELPASQRTGPQNGWNDPPALNRVPKKKKMPENFMPPVPITSPIMNPLGDPQSQMLQQQPSAPVPLSSQSSFPQPHLPGGQPFHGVQQPLGQTGMPPSFSKPNIEGAPGAPIGNTFQHVQSLPTKKITKKPIPDEHLILKTTFEDLIQRCLSSATDPQTKRKLDDASKRLEFLYDKLREQTLSPTITSGLHNIARSIETRNYSEGLTMHTHIVSTSNFSETSAFMPVLKVVLTQANKLGV
With B1 the binding [1] was “binds”.

B2: Sec24B (protein, UniProt O95487 1-1268)
chain: MSAPAGSSHPAASARIPPKFGGAAVSGAAAPAGPGAGPAPHQQNGPAQNQMQVPSGYGLHHQNYIAPSGHYSQGPGKMTSLPLDTQCGDYYSALYTVPTQNVTPNTVNQQPGAQQLYSRGPPAPHIVGSTLGSFQGAASSASHLHTSASQPYSSFVNHYNSPAMYSASSSVASQGFPSTCGHYAMSTVSNAAYPSVSYPSLPAGDTYGQMFTSQNAPTVRPVKDNSFSGQNTAISHPSPLPPLPSQQHHQQQSLSGYSTLTWSSPGLPSTQDNLIRNHTGSLAVANNNPTITVADSLSCPVMQNVQPPKSSPVVSTVLSGSSGSSSTRTPPTANHPVEPVTSVTQPSELLQQKGVQYGEYVNNQASSAPTPLSSTSDDEEEEEEDEEAGVDSSSTTSSASPMPNSYDALEGGSYPDMLSSSASSPAPDPAPEPDPASAPAPASAPAPVVPQPSKMAKPFGYGYPTLQPGYQNATAPLISGVQPSNPVYSGFQQYPQQYPGVNQLSSSIGGLSLQSSPQPESLRPVNLTQERNILPMTPVWAPVPNLNADLKKLNCSPDSFRCTLTNIPQTQALLNKAKLPLGLLLHPFRDLTQLPVITSNTIVRCRSCRTYINPFVSFIDQRRWKCNLCYRVNDVPEEFMYNPLTRSYGEPHKRPEVQNSTVEFIASSDYMLRPPQPAVYLFVLDVSHNAVEAGYLTILCQSLLENLDKLPGDSRTRIGFMTFDSTIHFYNLQEGLSQPQMLIVSDIDDVFLPTPDSLLVNLYESKELIKDLLNALPNMFTNTRETHSALGPALQAAFKLMSPTGGRVSVFQTQLPSLGAGLLQSREDPNQRSSTKVVQHLGPATDFYKKLALDCSGQQTAVDLFLLSSQYSDLASLACMSKYSAGCIYYYPSFHYTHNPSQAEKLQKDLKRYLTRKIGFEAVMRIRCTKGLSMHTFHGNFFVRSTDLLSLANINPDAGFAVQLSIEESLTDTSLVCFQTALLYTSSKGERRIRVHTLCLPVVSSLADVYAGVDVQAAICLLANMAVDRSVSSSLSDARDALVNAVVDSLSAYGSTVSNLQHSALMAPSSLKLFPLYVLALLKQKAFRTGTSTRLDDRVYAMCQIKSQPLVHLMKMIHPNLYRIDRLTDEGAVHVNDRIVPQPPLQKLSAEKLTREGAFLMDCGSVFYIWVGKGCDNNFIEDVLGYTNFASIPQKMTHLPELDTLSSERARSFITWLRDSRPLSPILHIVKDESPAKAEFFQHLIEDRTEAAFSYYEFLLHVQQQICK
B2 was tested, and the binding [2] was “binds”.
